Test results as given in PMC11622617.
No constants are given. Whether binding was seen depends on the method and setting. Binding seen in cells or lysates may run through a third protein. Some entries that bind do so weakly or less than the wild type.

Target: T1, endogenous CHMP7 (human (endogenous in Tet-VPS4B^E235Q-mVenus glioblastoma cells)) (UniProt Q8WUX9)
T1 sequence: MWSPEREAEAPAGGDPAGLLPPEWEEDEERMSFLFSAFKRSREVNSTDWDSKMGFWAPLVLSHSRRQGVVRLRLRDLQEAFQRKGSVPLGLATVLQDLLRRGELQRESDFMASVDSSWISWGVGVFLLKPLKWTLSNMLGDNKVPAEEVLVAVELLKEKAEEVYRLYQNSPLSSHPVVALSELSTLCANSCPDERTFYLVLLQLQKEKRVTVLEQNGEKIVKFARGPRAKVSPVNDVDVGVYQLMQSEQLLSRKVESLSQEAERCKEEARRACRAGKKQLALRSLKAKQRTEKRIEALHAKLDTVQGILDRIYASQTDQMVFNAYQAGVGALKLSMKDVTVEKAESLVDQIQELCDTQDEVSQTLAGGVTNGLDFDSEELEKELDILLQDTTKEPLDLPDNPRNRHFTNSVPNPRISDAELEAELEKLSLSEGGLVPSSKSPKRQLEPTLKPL
Assay: co-IP; lysate of Tet-VPS4B^E235Q-mVenus cells in the absence (DOX-) and presence (DOX+) of DOX; precipitated with anti-CHMP7 antibodies; normal rabbit IgG as negative control; VPS4B^E235Q-mVenus detected with anti-GFP antibodies

- binding: binds
B1: VPS4B^E235Q-mVenus (enzyme, UniProt O75351 1-444)
chain: MSSTSPNLQKAIDLASKAAQEDKAGNYEEALQLYQHAVQYFLHVVKYEAQGDKAKQSIRAKCTEYLDRAEKLKEYLKNKEKKAQKPVKEGQPSPADEKGNDSDGEGESDDPEKKKLQNQLQGAIVIERPNVKWSDVAGLEGAKEALKEAVILPIKFPHLFTGKRTPWRGILLFGPPGTGKSYLAKAVATEANNSTFFSISSSDLVSKWLGESEKLVKNLFQLARENKPSIIFIDQIDSLCGSRSENESEAARRIKTEFLVQMQGVGVDNDGILVLGATNIPWVLDSAIRRRFEKRIYIPLPEPHARAAMFKLHLGTTQNSLTEADFRELGRKTDGYSGADISIIVRDALMQPVRKVQSATHFKKVRGPSRADPNHLVDDLLTPCSPGDPGAIEMTWMDVPGDKLLEPVVSMSDMLRSLSNTKPTVNEHDLLKLKKFTEDFGQEG
